According to PubChem BioAssay AID2685 (National Center for Advancing Translational Sciences (NCATS), 2010):
This is one part of the list. Shown are side measurements of this screen, not its main read-out; they come without a call. Compounds called inactive in the main read-out are mostly missing here. The note in brackets gives the kind of curve behind each potency; many fits are weak.

Assay: qHTS Assay for Lipid Storage Modulators in Drosophila S3 Cells;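 for cell number change: cells counted by Cell Tracker Red CMTPX staining in the red channel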
Conditions: BODIPY lipid droplet fluorescence, 18-24 h; for cell number change: measured here: cell count max response, cells fed with added oleic acid
Method in brief: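 Laser-scanning cytometry quantifies lipid droplet accumulation (500–530 nm total intensity; droplet/cell object ratio) in oleic acid-fed (400 uM added) Drosophila S3 cells treated with a concentration series. 20 uM Triacsin C defined 100% inhibition.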

[1] = measured here: lipid fluorescence (Fed channel) AC50, cells fed with added oleic acid
[2] = measured here: cell number channel AC50, cells fed with added oleic acid

SMILES | cell number change [%] | AC50 [1] | AC50 [2]
COc1cc(/C(C)=C/c2ccccc2)c2c(c1)oc1ccccc12 | 19.1 | 9.2 µM [rising, partial curve] | 
CC1CCC(NC(=O)COC(=O)c2ccc3ncsc3c2)CC1 (stereo not given) | 26.7 | 0.411 µM [rising, full curve, poor fit] | 
O=C(NCCc1ccc(Cl)cc1)C1CCN(C(=O)c2ccc(F)cc2)CC1 | 21.8 | 13 µM [rising, partial curve, poor fit] | 
COc1ccccc1NC(=O)CSc1nc2ccccc2c(=O)n1CCNC(C)=O | -25.9 | 0.103 µM [rising, full curve, poor fit] | 
C=CCn1c(SCC(=O)N(C)C2CCS(=O)(=O)C2)nc2ccccc2c1=O (stereo not given) | 115 |  | 
O=C(Nc1ccc2c(c1)OCCO2)c1cccc(S(=O)(=O)N2CCCCC2)c1 | 5.43 | 18.4 µM [rising, partial curve] | 1.84 µM [rising, partial curve]
O=C(NCCCN1CCOCC1)C(=O)NCC1OCCCN1S(=O)(=O)c1cc(F)ccc1F (stereo not given) | 11.8 | 2.31 µM [falling, single point] | 
O=C(O)c1nc(N2CCCC2)ncc1Cl | -60 |  | 20.6 µM [falling, partial curve]
Cc1c(C=O)c2ccccc2n1CCOc1ccccc1 | -23.6 | 29.1 µM [falling, single point] | 
CCOC(=O)N1CCC2(CC1)C(C#N)=C(N)Oc1c2sc2nc(C)cc(C)c12 | 4.61 | 3.26 µM [rising, full curve, poor fit] | 
CCOc1ccc(NC(=O)CSc2nc(=O)n(CCCN3CCOCC3)c3c2CCC3)cc1 | -0.321 |  | 
COc1cc(NC(=O)CNC(=O)Cn2ccc3ccccc3c2=O)cc(OC)c1OC | 25.7 |  | 
CC1(C)CC(=O)c2c(noc2-c2ccccc2)C1 | -37 | 14.6 µM [falling, partial curve] | 16.4 µM [falling, partial curve]
Cc1ccc(C)c(S(=O)(=O)N2CCN(C(=O)CCc3nc4ccccc4c(=O)[nH]3)CC2)c1 | 77.1 |  | 29.1 µM [rising, single point]
COC(=O)CCS(=O)(=O)c1ccc(Cl)c(Cl)c1 | -15.9 |  | 
COCCCNC(=O)CCn1c(=O)c2ccccc2n(CC(=O)Nc2cc(Cl)ccc2C)c1=O | 12.1 | 29.1 µM [rising, partial curve, poor fit] | 
NC(=O)COC(=O)c1cccc2c1-c1ccccc1C2=O | -9.08 | 0.00731 µM [falling, full curve, poor fit] | 
CC(C)CNS(=O)(=O)c1ccc(CCC(=O)N2CCN(c3ccccc3)CC2)cc1 |  | 3.66 µM [rising, partial curve] | 
CC1CCCC(C)N1C(=O)Cc1ccccc1 (stereo not given) | 19.3 | 1.16 µM [falling, full curve] | 
CCOC(=O)N1CCN(C(=O)Nc2sc3nc4n(c(=O)c3c2C)CCC(C)CC4)CC1 (stereo not given) | -15.5 |  | 
CCC(COC)NC(=O)c1ccc(OC)c(OC2CCN(C(C)=O)CC2)c1 (stereo not given) | 7.42 | 29.1 µM [rising, single point] | 

SMILES | cell number change [%] | AC50 [1] | AC50 [2]
COC(=O)c1cccc(N(C(=O)c2cnccn2)C(C(=O)NC2CCCCC2)c2cn(C)nc2C)c1 (stereo not given) |  | 0.146 µM [falling, full curve] | 0.13 µM [falling, full curve]
C=CCN1C(=O)c2cccc3c(Br)ccc(c23)C1=O |  | 0.13 µM [rising, full curve, poor fit] | 
Cc1occc1-c1nc(-c2ccncc2)no1 |  | 6.51 µM [rising, single point] | 2.59 µM [rising, partial curve]
COc1ccccc1OCCCCN1CCC(C)CC1 | -5.56 |  | 
CC(=O)OC1CC(C)(C)N(OC(=O)c2ccccc2)C(C)(C)C1 | -24 | 14.6 µM [falling, partial curve] | 
COc1ccc(N2CC(C(=O)Nc3ccc(S(=O)(=O)N4CCCCC4)cc3)CC2=O)cc1 (stereo not given) | -6.03 | 18.4 µM [falling, partial curve, poor fit] | 
COc1ccc(/C=N/Nc2ccc(C(F)(F)F)cc2[N+](=O)[O-])cc1 | -28.4 | 29.1 µM [falling, single point] | 
Cc1cc(C)cc(NC(=S)N2CCN(S(C)(=O)=O)CC2)c1 | -32.2 | 7.31 µM [rising, partial curve] | 
Cc1ccc(Cl)cc1NC(=O)CSc1sc2c(O)cc(=O)[nH]c2c1C#N | 15.7 |  | 7.31 µM [rising, partial curve, poor fit]
COc1ccc(Cn2c(O)c(C=Nc3ccc(C)cc3)c3ccccc3c2=O)cc1 | -26 | 6.51 µM [falling, single point] | 
CN(CC(=O)NC1CCCCCC1)S(=O)(=O)c1ccc2c(c1)n(C)c(=O)c(=O)n2C | -9.96 | 1.64 µM [falling, full curve, poor fit] | 
CC(NC(=O)C(C)(C)C)c1nc2ccccc2n1C (stereo not given) | -156 | 29.1 µM [falling, partial curve] | 23.1 µM [falling, single point]
O=C(COc1ccc(Br)cc1)Nc1ccc(N2CCOCC2)cc1N1CCOCC1 | 5.57 | 3.26 µM [falling, single point] | 
COC(=O)CSc1nc(N)c(NC(=O)c2ccc(OC)c(OC)c2)c(=O)[nH]1 | -34.3 | 2.91 µM [falling, full curve] | 2.91 µM [falling, full curve, poor fit]
O=C(O)c1ccccc1NS(=O)(=O)c1ccccc1C(F)(F)F | -13.8 |  | 
C=CCC1(CC=C)CCCN1Cc1nc(COc2ccccc2)no1 | 2.04 | 0.13 µM [falling, partial curve, poor fit] | 
COC(=O)c1ccccc1NC(=O)NCc1ccc2c(c1)OCO2 | 117 | 16.4 µM [rising, partial curve] | 16.4 µM [rising, partial curve, poor fit]
CCN(CC(=O)Nc1cccc(OC)c1)CC(=O)Nc1ccccc1C | -1.42 |  | 
CC1CCCCC1NC(=O)c1cccc(N2C(=O)C3C4C=CC(C4)C3C2=O)c1 (stereo not given) |  | 2.91 µM [rising, partial curve] | 
O=C(Nc1ccc2c(c1)CCC2)c1cccc(F)c1 | 55.4 | 6.51 µM [falling, single point] | 2.06 µM [falling, partial curve]
O=C1C2C3C=CC(C4CC34)C2C(=O)N1/N=C/c1ccc(-c2ccc([N+](=O)[O-])cc2)o1 (stereo not given) | 0.319 | 3.26 µM [falling, single point] | 5.17 µM [falling, single point]

3 compounds drawn at random from those above:
SMILES | cell number change [%] | AC50 [1] | AC50 [2]
C=CCC1(CC=C)CCCN1Cc1nc(COc2ccccc2)no1 | 2.04 | 0.13 µM [falling, partial curve, poor fit] | 
O=C(Nc1ccc2c(c1)CCC2)c1cccc(F)c1 | 55.4 | 6.51 µM [falling, single point] | 2.06 µM [falling, partial curve]
CN(CC(=O)NC1CCCCCC1)S(=O)(=O)c1ccc2c(c1)n(C)c(=O)c(=O)n2C | -9.96 | 1.64 µM [falling, full curve, poor fit] | 

Following part

SMILES | cell number change [%] | AC50 [1] | AC50 [2]
COc1ccccc1-c1nc(N)n[nH]1 | 17.1 | 0.0461 µM [rising, full curve, poor fit] | 
COc1ccc(N(CC(=O)NN=C2CCCC2)S(=O)(=O)c2ccccc2)cc1 | 22.4 | 2.91 µM [falling, single point] | 
S=c1nc(Cc2ccc(Cl)cc2)[nH]c2ccccc12 |  | 1.64 µM [falling, partial curve] | 
O=C(CN1CCOCC1)N/N=C/C(Br)=C\c1ccccc1 | -7.69 |  | 
COc1ccc(C(=O)N(C)Cc2ccc(C)o2)cc1OC1CCN(C(C)C)CC1 | 24.3 |  | 
O=C(C1CCN(S(=O)(=O)c2cccnc2)CC1)N1CCCCC1 | 3.44 | 6.51 µM [falling, partial curve, poor fit] | 
COc1ccc(Cl)cc1N(CC(=O)N1CCCC1)S(C)(=O)=O | 43.9 |  | 1.46 µM [rising, full curve]
Cc1c(C(N)=O)sc2ncn(CC(=O)OC(C)C)c(=O)c12 | -10.3 |  | 0.00461 µM [falling, full curve, poor fit]
Cc1ccc(C(=O)CSc2n[nH]c(C)n2)cc1 | 3.81 |  | 
COC(=O)Cc1sc(-c2ccccn2)nc1-c1ccccc1 | 31 |  | 10.3 µM [rising, single point]
CC(C)Oc1ccc(C(=O)NC2(C(F)(F)F)N=C3SCCN3C2=O)cc1 (stereo not given) | -30.6 | 3.26 µM [falling, single point] | 3.66 µM [falling, full curve]
COc1ccc(NC(=O)CN(C)C(=O)CC2CCCC2)cc1 | -54.2 |  | 29.1 µM [falling, single point]
O=C(CCN1C(=O)c2ccccc2C1=O)NCCCn1ccnc1 | -0.57 |  | 
Cc1ccnc(NS(=O)(=O)c2ccc(NS(=O)(=O)c3ccc(Br)cc3)cc2)n1 | 14.9 | 2.91 µM [rising, full curve] | 
O=C(Nc1ccccc1)/C(=C/c1cccnc1)NC(=O)c1ccccc1 | 88.9 |  | 16.4 µM [rising, single point]
CSc1ccccc1NC(=O)CSc1nnc(CNC(=O)c2ccccc2F)n1C | 1.9 |  | 
NS(=O)(=O)c1ccc(NC(=O)CSc2nnc(C3CC3)n2C2CC2)cc1 | -9.67 | 29.1 µM [rising, single point] | 
Cc1cc(C)c(S(=O)(=O)Nc2c(C)[nH]c(=O)[nH]c2=O)c(C)c1 | 16.6 | 0.411 µM [falling, single point] | 
CC(=O)c1ccc(OCCNS(=O)(=O)c2ccc(-n3cnnn3)c(C)c2)cc1 | -11.3 | 29.1 µM [falling, single point] | 
Cc1c(C(=O)NCc2ccco2)oc2c(F)cccc12 | 6.19 | 23.1 µM [rising, single point] | 
